Source: PubChem BioAssay AID1224830 (NIAID, 2016)
This is an unselected part of about 18,000 deposited reagents. Of all reagents, about 2,900 (16%) were called active. 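Calls are made per well; low scores hint the gene aids the LPS response, high scores that it dampens it.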 Unmarked entries are inactive. Repeated entries: four replicate wells of each siRNA pool.

Aim: 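Host factors that control LPS-induced TNF expression in human macrophages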 (primary screen)
Cells: human THP-1 monocytic leukaemia cells, TNF dual-luciferase reporter clone, PMA-differentiated to macrophage-like cells
Reagent: siRNA pool against human genes, 50 nM
Duration: LPS for 4 h, given about 3 days after siRNA transfection
Treatment: bacterial LPS (TLR4 ligand), 10 ng/ml
Detection: 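TNF firefly reporter luminescence divided by renilla, normalised to the plate median, then turned into a robust z-score for each replicate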
Reading the numbers: TNF reporter robust z-score: higher = stronger TNF reporter response to LPS
Active means: 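a well is active when its z-score exceeds 2.8 or falls below -1.5; control wells carry no call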

Gene,TNF reporter robust z-score
RAPGEF5 (Rap guanine nucleotide exchange factor 5),-1.45
RAPGEF5 (Rap guanine nucleotide exchange factor 5),-0.69
RAPGEF5 (Rap guanine nucleotide exchange factor 5),-0.9
RAPGEF5 (Rap guanine nucleotide exchange factor 5),-0.15
CD300LB (CD300 molecule like family member b),-0.81
CD300LB (CD300 molecule like family member b),-0.41
CD300LB (CD300 molecule like family member b),0.63
CD300LB (CD300 molecule like family member b),0.31
RC3H2 (ring finger and CCCH-type domains 2),-1.66 (active)
RC3H2 (ring finger and CCCH-type domains 2),0.52
RC3H2 (ring finger and CCCH-type domains 2),0.12
RC3H2 (ring finger and CCCH-type domains 2),-0.52
TMC4 (transmembrane channel like 4),1.86
TMC4 (transmembrane channel like 4),0.53
TMC4 (transmembrane channel like 4),1.55
TMC4 (transmembrane channel like 4),1.24
HSPA13 (heat shock protein family A (Hsp70) member 13),-1.41
HSPA13 (heat shock protein family A (Hsp70) member 13),-1.26
HSPA13 (heat shock protein family A (Hsp70) member 13),-1.21
HSPA13 (heat shock protein family A (Hsp70) member 13),-1.29
IGSF6 (immunoglobulin superfamily member 6),9.77 (active)
IGSF6 (immunoglobulin superfamily member 6),2.83 (active)
IGSF6 (immunoglobulin superfamily member 6),0.69
IGSF6 (immunoglobulin superfamily member 6),0.85
AOX1 (aldehyde oxidase 1),-0.62
AOX1 (aldehyde oxidase 1),-0.23
AOX1 (aldehyde oxidase 1),-0.67
AOX1 (aldehyde oxidase 1),-0.34
"SRC (SRC proto-oncogene, non-receptor tyrosine kinase)",0.37
"SRC (SRC proto-oncogene, non-receptor tyrosine kinase)",0.81
"SRC (SRC proto-oncogene, non-receptor tyrosine kinase)",0.53
"SRC (SRC proto-oncogene, non-receptor tyrosine kinase)",-0.25
MANBAL (mannosidase beta like),-0.55
MANBAL (mannosidase beta like),1.21
MANBAL (mannosidase beta like),-0.61
MANBAL (mannosidase beta like),0.3
CDH8 (cadherin 8),0.28
CDH8 (cadherin 8),0.31
CDH8 (cadherin 8),-0.09
CDH8 (cadherin 8),0.18
HNRNPA1 (heterogeneous nuclear ribonucleoprotein A1),-1.94 (active)
HNRNPA1 (heterogeneous nuclear ribonucleoprotein A1),-0.49
HNRNPA1 (heterogeneous nuclear ribonucleoprotein A1),-0.1
HNRNPA1 (heterogeneous nuclear ribonucleoprotein A1),-0.57
NOL4L (nucleolar protein 4 like),0.11
NOL4L (nucleolar protein 4 like),-0.44
NOL4L (nucleolar protein 4 like),-0.36
NOL4L (nucleolar protein 4 like),0.05
DEFB106A (defensin beta 106A),0.15
DEFB106A (defensin beta 106A),-0.6
DEFB106A (defensin beta 106A),-0.33
DEFB106A (defensin beta 106A),0.94

Next part; the last 16 above are carried over.
Gene,TNF reporter robust z-score
CDH8 (cadherin 8),0.28
CDH8 (cadherin 8),0.31
CDH8 (cadherin 8),-0.09
CDH8 (cadherin 8),0.18
HNRNPA1 (heterogeneous nuclear ribonucleoprotein A1),-1.94 (active)
HNRNPA1 (heterogeneous nuclear ribonucleoprotein A1),-0.49
HNRNPA1 (heterogeneous nuclear ribonucleoprotein A1),-0.1
HNRNPA1 (heterogeneous nuclear ribonucleoprotein A1),-0.57
NOL4L (nucleolar protein 4 like),0.11
NOL4L (nucleolar protein 4 like),-0.44
NOL4L (nucleolar protein 4 like),-0.36
NOL4L (nucleolar protein 4 like),0.05
DEFB106A (defensin beta 106A),0.15
DEFB106A (defensin beta 106A),-0.6
DEFB106A (defensin beta 106A),-0.33
DEFB106A (defensin beta 106A),0.94
KLF8 (KLF transcription factor 8),0.91
KLF8 (KLF transcription factor 8),2.41
KLF8 (KLF transcription factor 8),0.21
KLF8 (KLF transcription factor 8),1.57
"AIFM2 (AIF family member 2, ferroptosis suppressor)",1.12
"AIFM2 (AIF family member 2, ferroptosis suppressor)",1.25
"AIFM2 (AIF family member 2, ferroptosis suppressor)",1
"AIFM2 (AIF family member 2, ferroptosis suppressor)",1.79
MIR1-1HG (MIR1-1 host gene),0.65
MIR1-1HG (MIR1-1 host gene),3.21 (active)
MIR1-1HG (MIR1-1 host gene),1.21
MIR1-1HG (MIR1-1 host gene),0.38
COL23A1 (collagen type XXIII alpha 1 chain),-1.28
COL23A1 (collagen type XXIII alpha 1 chain),-1.33
COL23A1 (collagen type XXIII alpha 1 chain),-1.86 (active)
COL23A1 (collagen type XXIII alpha 1 chain),-0.79
EHMT1 (euchromatic histone lysine methyltransferase 1),-1.71 (active)
EHMT1 (euchromatic histone lysine methyltransferase 1),-1.8 (active)
EHMT1 (euchromatic histone lysine methyltransferase 1),-1.97 (active)
EHMT1 (euchromatic histone lysine methyltransferase 1),-1.58 (active)
AR (androgen receptor),1.01
AR (androgen receptor),-0.43
AR (androgen receptor),-0.04
AR (androgen receptor),1.81
DYNAP (dynactin associated protein),-1.04
DYNAP (dynactin associated protein),-0.7
DYNAP (dynactin associated protein),-0.41
DYNAP (dynactin associated protein),-0.21
FRS3 (fibroblast growth factor receptor substrate 3),-0.76
FRS3 (fibroblast growth factor receptor substrate 3),-0.21
FRS3 (fibroblast growth factor receptor substrate 3),-1.07
FRS3 (fibroblast growth factor receptor substrate 3),-0.69
PDE6G (phosphodiesterase 6G),1.09
PDE6G (phosphodiesterase 6G),1.96
PDE6G (phosphodiesterase 6G),1.99
PDE6G (phosphodiesterase 6G),2.56
CHL1 (cell adhesion molecule L1 like),-0.43
CHL1 (cell adhesion molecule L1 like),0.28
CHL1 (cell adhesion molecule L1 like),-0.46
CHL1 (cell adhesion molecule L1 like),0.71
SPANXA2 (SPANX family member A2),-1.26
SPANXA2 (SPANX family member A2),-1.15
SPANXA2 (SPANX family member A2),-0.73
CEP20 (centrosomal protein 20),-1.36
CEP20 (centrosomal protein 20),-1.96 (active)
CEP20 (centrosomal protein 20),-1.59 (active)
CEP20 (centrosomal protein 20),-1.14
SPP1 (secreted phosphoprotein 1),1.26
SPP1 (secreted phosphoprotein 1),-0.51
SPP1 (secreted phosphoprotein 1),-0.63
SPP1 (secreted phosphoprotein 1),0.95
ZCRB1 (zinc finger CCHC-type and RNA binding motif containing 1),-0.68
ZCRB1 (zinc finger CCHC-type and RNA binding motif containing 1),-0.55
ZCRB1 (zinc finger CCHC-type and RNA binding motif containing 1),-0.46
ZCRB1 (zinc finger CCHC-type and RNA binding motif containing 1),-0.01
CHRDL2 (chordin like 2),0
CHRDL2 (chordin like 2),1.2
CHRDL2 (chordin like 2),0.34
CHRDL2 (chordin like 2),0.45
"RPRM (reprimo, TP53 dependent G2 arrest mediator homolog)",0.18
"RPRM (reprimo, TP53 dependent G2 arrest mediator homolog)",1.1
"RPRM (reprimo, TP53 dependent G2 arrest mediator homolog)",0.14
"RPRM (reprimo, TP53 dependent G2 arrest mediator homolog)",1.08
MAGEC3 (MAGE family member C3),-0.1
MAGEC3 (MAGE family member C3),-0.63
MAGEC3 (MAGE family member C3),-0.24
MAGEC3 (MAGE family member C3),0.76
FAM117A (family with sequence similarity 117 member A),1.13
FAM117A (family with sequence similarity 117 member A),-0.53
FAM117A (family with sequence similarity 117 member A),-0.5
FAM117A (family with sequence similarity 117 member A),-1.05
ALDH7A1 (aldehyde dehydrogenase 7 family member A1),-0.63
ALDH7A1 (aldehyde dehydrogenase 7 family member A1),0.11
ALDH7A1 (aldehyde dehydrogenase 7 family member A1),0
ALDH7A1 (aldehyde dehydrogenase 7 family member A1),0.77
FGF3 (fibroblast growth factor 3),0.21
FGF3 (fibroblast growth factor 3),0.19
FGF3 (fibroblast growth factor 3),0.12
FGF3 (fibroblast growth factor 3),0.02
CSNK2B (casein kinase 2 beta),2.13
CSNK2B (casein kinase 2 beta),1.67
CSNK2B (casein kinase 2 beta),-0.53
CSNK2B (casein kinase 2 beta),1.94
PAX2 (paired box 2),-0.52
PAX2 (paired box 2),0.86
PAX2 (paired box 2),-0.25
PAX2 (paired box 2),1.89
CRYGN (crystallin gamma N),0.2
CRYGN (crystallin gamma N),-0.89
CRYGN (crystallin gamma N),-0.62
CRYGN (crystallin gamma N),0.31
